Measurements published in patent US20250332277A1, “PROTEIN TYROSINE KINASE 7 ANTIBODIES AND ANTIBODY-DRUG CONJUGATES” (Eli Lilly and Company, priority 2024, published 2025).

Molecular target: cynomolgus monkey PTK-7 (cynomolgus monkey)
Experiment: SPR (cross-species binding); values not given

- binding: binds
B1: Ab1 (antibody, human IgG1, kappa, L234A L235A, V domains shown)
VH: EVQLVESGGGLVKPGGSLRLSCAASGFTFSSYIMNWVRQAPGKGLEWVSSISSSSTFIYYADSVKGRFTISRDNAKNSLYLQMNSLRAEDTAVYYCAKGFDYWGQGTLVTVSS
VL: DIQLTQSPSFLSASVGDRVTITCRASQDISSYLVWYQQKPGKAPKLLIYAASTLQSGVPSRFSGSGSGTEFTLTISSLQPEDFATYYCQQLNTYPRTFGQGTKVEIKR

These are yes or no findings as the source states them, for the method shown. Binding calls can cover weak binding; strength is not graded here.
